The list shows a part of the results. Repeats in this data set agree poorly, so a single value says little.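 HEK293T cells were given each compound shortly before transfection with a reporter in which red mCherry is followed by the SARS-CoV-2 frameshift element and then GFP in the −1 frame, so GFP appears only after frameshifting.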

The experiment deals with SARS-CoV-2 -1 PRF reporter mCherry-FSE-GFP(-1). Nature of the experiment: percent effect, decrease of GFP/mCherry ratio (-1 PRF reporter) relative to controls; higher = stronger frameshift inhibition. As to conditions: 10 µM; 24 h; HEK293T.
Take `CC1=C(C(=O)O)N2C(=O)[C@@H](NC(=O)[C@H](N)c3ccc(O)cc3)[C@H]2SC1` [cefadroxil]: the percent effect was -0.0212%.

For the compound `C[C@]12CC[C@@H]3c4ccc(O)cc4C[C@@H](CCCCCCCCC[S+]([O-])CCCC(F)(F)C(F)(F)F)[C@H]3[C@@H]1CC[C@@H]2O` (stereo partly specified), the percent effect was found to be 3.02%.

With `CC(=O)O[C@H]1C(=O)[C@@]2(C)[C@H]([C@H](OC(=O)c3ccccc3)[C@]3(O)C[C@H](OC(=O)[C@H](O)[C@@H](NC(=O)c4ccccc4)c4ccccc4)C(C)=C1C3(C)C)[C@]1(OC(C)=O)CO[C@@H]1C[C@@H]2O`, the percent effect is -1.82%.

`CCC(=O)O[C@]1(C(=O)COC(C)=O)CC[C@H]2[C@@H]3C[C@H](C)C4=CC(=O)C=C[C@]4(C)[C@H]3[C@@H](O)C[C@@]21C` [methylprednisolone aceponate]: the percent effect was -3.07%.

For `O=C(O)CCC/C=C\CC1C(O)CC(O)C1/C=C/C(O)COc1cccc(Cl)c1` (stereo unspecified) [cloprostenol], the percent effect is -0.129%.

Take `N[C@@H](Cc1ccccc1)C(=O)O` [phenylalanine]: the percent effect was 1.07%.

As to `O=[N+]([O-])c1cncn1CCN1CCOCC1` [nimorazole], the percent effect is -3.69%.

`CCCCCCCCCCCCCCC[C@H](O)[C@@H](N)CO` [safingol]: the percent effect is -2.2%.

`Cn1cnc([N+](=O)[O-])c1Sc1ncnc2nc[nH]c12`: the percent effect was 0.291%.

Turning to `CC[C@]12CCCN3CCc4c(n(c5ccccc45)[C@@](O)(C(=O)OC)C1)[C@@H]32`, the percent effect is 3.38%.

Turning to `C[C@H]1c2cccc(O)c2C(O)=C2C(=O)[C@]3(O)C(O)=C(C(N)=O)C(=O)[C@@H](N(C)C)[C@@H]3[C@@H](O)[C@@H]21` [doxycycline], the percent effect is 4.59%.

(Values after the supplement of paper PMC8256030.)
